The list does not hold the whole screen: it gathers tests that were run many times, whatever their T/C, doses with no T/C, and many T/C values between a quarter and a half above the control. Other doses and runs of a compound stand elsewhere. T/C is the treated group as % of the vehicle group. Some doses have a count of surviving animals in place of a T/C: the source holds a T/C of zero for them, seemingly a mark for toxic or unscored doses. Some survivor counts are full or nearly so, which does not show that the dose was tolerated: survival well below the control is almost never listed, so the zero probably covers shortened survival too. Counts of survivors are from the toxicity check (mostly the fifth day) where no day follows; animals may have died later. Schedules are NCI's codes, taken here to give the interval after Q, in days (D) or hours (H), and the number of doses after X. Some doses were run more than once; the values are given in rising order. For survival time, this PubChem deposit counts one and a half times the control or more as active, and values a quarter to a half above the control carry no call in these data; other NCI protocols may use other cut-offs. Some T/C values carry the count of animals alive at the toxicity check (mostly the fifth day); where none is given, no animal had died by that day. Marks such as (2×) give the number of equal values in this list.
System: CD2F1 mice, ip Colon 26 adenocarcinoma, median survival T/C
Experiment: NCI In Vivo Anticancer Drug Screen. Data for tumor model Colon 26 Adenocarcinoma (intraperitoneal) in CD2F1 (CDF1) mice
Conditions: T/C endpoint: median survival time, higher T/C = longer survival
Description: The antitumor activity of compounds was measured in mice bearing transplantable tumors. Survival or tumor size were measured and the results are expressed as the measurement made in the treated group (T) divided by the measurement made in the vehicle treated control group (C). The tumor model used in this assay is Colon 26 Adenocarcinoma (intraperitoneal) in CD2F1 (CDF1) mice

[1] = dose: 25.0 mg/kg/injection, schedule: Q04DX003 (ip), vehicle: saline with Tween-80
[2] = dose: 50.0 mg/kg/injection, schedule: Q04DX003 (ip), vehicle: saline with Tween-80
[3] = dose: 100.0 mg/kg/injection, schedule: Q04DX003 (ip), vehicle: saline with Tween-80
[4] = dose: 200.0 mg/kg/injection, schedule: Q04DX003 (ip), vehicle: saline with Tween-80
[5] = dose: 400.0 mg/kg/injection, schedule: Q04DX003 (ip), vehicle: saline with Tween-80
[6] = dose: 800.0 mg/kg/injection, schedule: Q04DX003 (oral), vehicle: saline with Tween-80
[7] = dose: 100.0 mg/kg/injection, schedule: Q04DX003 (ip), vehicle: saline
[8] = dose: 400.0 mg/kg/injection, schedule: Q04DX002 (ip), vehicle: distilled water + Tween-80

SMILES: CC1(CO)C(O)CCC2(C)C1CCC1CC3CC12CCC3(O)CO (stereo unspecified)
- T/C [1]: 96, 109, 113 % of control
- survivor count [1]: 9 of 10
- survivor count (dose: 50.0 mg/kg/injection, schedule: Q01DX009 (ip), vehicle: saline with Tween-80): 10 of 10
- T/C (dose: 50.0 mg/kg/injection, schedule: Q04DX002 (ip), vehicle: saline with Tween-80, evaluated on day 60): 102, 106, 129, 135, 166 % of control
- T/C (dose: 50.0 mg/kg/injection, schedule: Q04DX002 (ip), vehicle: saline with Tween-80, evaluated on day 75): 106 % of control
- T/C [2]: 109, 112, 124, 130 % of control
- survivor count [2]: 0 of 10
- survivor count (dose: 100.0 mg/kg/injection, schedule: Q01DX009 (ip), vehicle: saline with Tween-80): 10 of 10
- T/C (dose: 100.0 mg/kg/injection, schedule: Q04DX002 (ip), vehicle: saline with Tween-80, evaluated on day 60): 127, 135 (2×), 151, 171, 188 % of control
- T/C (dose: 100.0 mg/kg/injection, schedule: Q04DX002 (ip), vehicle: saline with Tween-80, evaluated on day 75): 121 % of control
- T/C [3]: 110, 115, 124, 126 % of control
- survivor count [3]: 0 of 10
- survivor count (dose: 200.0 mg/kg/injection, schedule: Q01DX009 (ip), vehicle: saline with Tween-80): 10 of 10
- T/C (dose: 200.0 mg/kg/injection, schedule: Q04DX002 (ip), vehicle: saline with Tween-80, evaluated on day 60): 143, 153, 162, 164, 191 % of control
- T/C (dose: 200.0 mg/kg/injection, schedule: Q04DX002 (ip), vehicle: saline with Tween-80, evaluated on day 75): 119 % of control
- survivor count (dose: 200.0 mg/kg/injection, schedule: Q04DX002 (ip), vehicle: saline with Tween-80): 10 of 10
- T/C [4]: 115, 126, 130, 150 % of control
- survivor count [4]: 0 of 10
- T/C (dose: 200.0 mg/kg/injection, schedule: Q04DX003 (oral), vehicle: saline with Tween-80): 101 (2×), 109, 135 % of control
- survivor count (dose: 400.0 mg/kg/injection, schedule: Q01DX009 (ip), vehicle: saline with Tween-80): 8 of 10
- T/C (dose: 400.0 mg/kg/injection, schedule: Q04DX002 (ip), vehicle: saline with Tween-80, evaluated on day 60): 125, 139, 159, 159 [8 of 10 alive], 191, 204 % of control
- T/C (dose: 400.0 mg/kg/injection, schedule: Q04DX002 (ip), vehicle: saline with Tween-80, evaluated on day 75): 173 % of control
- T/C [5]: 132, 142, 156, 187 % of control
- survivor count [5]: 0 of 10
- T/C (dose: 400.0 mg/kg/injection, schedule: Q04DX003 (oral), vehicle: saline with Tween-80): 99, 103, 104, 171 % of control
- T/C (dose: 800.0 mg/kg/injection, schedule: Q04DX002 (ip), vehicle: saline with Tween-80, evaluated on day 60): 141 [8 of 10 alive], 154, 166 % of control
- T/C (dose: 800.0 mg/kg/injection, schedule: Q04DX002 (ip), vehicle: saline with Tween-80, evaluated on day 75): 118 % of control [9 of 10 alive]
- survivor count (dose: 800.0 mg/kg/injection, schedule: Q04DX002 (ip), vehicle: saline with Tween-80): 4 of 10, 7 of 10, 9 of 10
- T/C [6]: 105, 107, 348 % of control
- survivor count [6]: 6 of 6
- survivor count (dose: 1600.0 mg/kg/injection, schedule: Q04DX003 (oral), vehicle: saline with Tween-80): 1 of 6

SMILES: C=CC(=O)N1CN(C(=O)C=C)CN(C(=O)C=C)C1
- T/C (dose: 3.12 mg/kg/injection, schedule: Q04DX003 (ip), vehicle: saline): 131 % of control
- T/C (dose: 6.25 mg/kg/injection, schedule: Q04DX003 (ip), vehicle: saline): 132 % of control
- survivor count [1]: 4 of 10
- survivor count (dose: 25.0 mg/kg/injection, schedule: Q04DX003 (ip), vehicle: saline): 0 of 10
- survivor count [2]: 0 of 10
- survivor count (dose: 50.0 mg/kg/injection, schedule: Q04DX003 (ip), vehicle: saline): 0 of 10
- survivor count [3]: 0 of 10
- survivor count [7]: 0 of 10

SMILES: O=C(CCCN1CCC(O)(c2cccc(C(F)(F)F)c2)CC1)c1ccc(F)cc1
- survivor count (dose: 100.0 mg/kg/injection, schedule: Q04DX003 (ip), vehicle: Klucel (hydroxypropylcellulose) (HPC)): 5 of 10

SMILES: CC1(C(=O)O)C(O)CCC2(C)C1CCC1CC3CC12CCC3(O)CO (stereo unspecified)
- survivor count [8]: 10 of 10

SMILES: CCOC(C)C(/C=N/NC(N)=S)=NNC(N)=S (stereo unspecified)
- T/C [7]: 132 % of control
- T/C (dose: 200.0 mg/kg/injection, schedule: Q04DX003 (ip), vehicle: saline): 138 % of control
- T/C (dose: 400.0 mg/kg/injection, schedule: Q04DX003 (ip), vehicle: saline): 144 % of control [8 of 10 alive]

SMILES: CN1C(=O)NC(c2ccc(Cl)cc2)(c2ccc(Cl)cc2)C1=O
- survivor count (dose: 100.0 mg/kg/injection, schedule: Q04DX002 (ip), vehicle: distilled water + Tween-80): 10 of 10
- survivor count (dose: 200.0 mg/kg/injection, schedule: Q04DX002 (ip), vehicle: distilled water + Tween-80): 9 of 10
- survivor count [8]: 7 of 10

SMILES: COC(=O)C(F)C(Br)C(=O)OC (stereo unspecified)
- survivor count [3]: 6 of 10
- survivor count [4]: 0 of 10

SMILES: CCOC(=O)CNC(=O)CCCCSc1ncnc2nc[nH]c12
- survivor count (dose: 3200.0 mg/kg/injection, schedule: Q04DX003 (ip), vehicle: saline with Tween-80): 4 of 10

SMILES: CN(C)C(=O)c1cccc(COc2ccc(N3C(N)=NC(N)=NC3(C)C)cc2Cl)c1
- survivor count (dose: 54.0 mg/kg/injection, schedule: Q06HX018 (ip), vehicle: saline): 3 of 10

SMILES: COC(=O)Nc1cccc(-c2nc3ccc(NC(=O)OC)cc3c(=O)n2-c2ccccc2)c1
- T/C (dose: 32.0 mg/kg/injection, schedule: Q04DX003 (ip), vehicle: Klucel (hydroxypropylcellulose) (HPC)): 127 % of control
- survivor count (dose: 128.0 mg/kg/injection, schedule: Q04DX003 (ip), vehicle: Klucel (hydroxypropylcellulose) (HPC)): 4 of 10
- survivor count (dose: 256.0 mg/kg/injection, schedule: Q04DX003 (ip), vehicle: Klucel (hydroxypropylcellulose) (HPC)): 1 of 10
- survivor count (dose: 512.0 mg/kg/injection, schedule: Q04DX003 (ip), vehicle: Klucel (hydroxypropylcellulose) (HPC)): 0 of 10
- survivor count (dose: 1024.0 mg/kg/injection, schedule: Q04DX003 (ip), vehicle: Klucel (hydroxypropylcellulose) (HPC)): 0 of 10

SMILES: CC(=O)OCC(=O)[C@@]12OC(C)(C)O[C@@H]1C[C@H]1[C@@H]3CC(C=O)=C4C=C(OCCCl)CC[C@]4(C)[C@@]3(F)[C@@H](O)C[C@@]12C
- survivor count (dose: 12.5 mg/kg/injection, schedule: Q04DX002 (ip), vehicle: Klucel (hydroxypropylcellulose) (HPC)): 10 of 10
- survivor count (dose: 25.0 mg/kg/injection, schedule: Q04DX002 (ip), vehicle: Klucel (hydroxypropylcellulose) (HPC)): 10 of 10
- survivor count (dose: 50.0 mg/kg/injection, schedule: Q04DX002 (ip), vehicle: Klucel (hydroxypropylcellulose) (HPC)): 10 of 10
- survivor count (dose: 100.0 mg/kg/injection, schedule: Q04DX002 (ip), vehicle: Klucel (hydroxypropylcellulose) (HPC)): 10 of 10
- survivor count (dose: 200.0 mg/kg/injection, schedule: Q04DX002 (ip), vehicle: Klucel (hydroxypropylcellulose) (HPC)): 10 of 10
- survivor count (dose: 400.0 mg/kg/injection, schedule: Q04DX002 (ip), vehicle: Klucel (hydroxypropylcellulose) (HPC)): 10 of 10

SMILES: CCC1OCC(C(Cl)CCl)O1 (stereo unspecified)
- survivor count (dose: 400.0 mg/kg/injection, schedule: Q04DX003 (ip), vehicle: Klucel (hydroxypropylcellulose) (HPC)): 9 of 10

SMILES: COc1cccc2c1C(=O)c1c(O)c3c(c(O)c1C2=O)C[C@@](O)(C(C)=O)C[C@@H]3OC1CC(N(Cc2ccccc2)Cc2ccccc2)C(O)C(C)O1 (stereo partly specified)
- T/C (dose: 6.0 mg/kg/injection, schedule: Q04DX002 (ip), vehicle: saline with Tween-80): 130 % of control
- T/C (dose: 12.0 mg/kg/injection, schedule: Q04DX002 (ip), vehicle: saline with Tween-80): 144 % of control
- T/C (dose: 25.0 mg/kg/injection, schedule: Q04DX002 (ip), vehicle: saline with Tween-80): 143 % of control

Reference: PubChem BioAssay AID210 (DTP/NCI, 2004)
